Assay [1] deals with p21 CIP1 (human (endogenous in U2OS)) (UniProt P38936). The assay can be described thus: co-IP; anti-p21 CIP1 immunoprecipitation from the N fraction of U2OS cells treated with CDDP (5 μM) for 3 days, MG132 added 3 h before harvesting; Western blot. On the technique in general: In western blotting, separated proteins are transferred to a membrane and probed.
Assay [2] shares this target. The assay can be described thus: condition: only in cells overexpressing HA βTrCP1 (U2OS::HA βTrCP1, CDDP 5 μM, MG132); co-IP; anti-p21 CIP1 immunoprecipitation from the N fraction of U2OS::HA βTrCP1 cells (overexpressing βTrCP1) treated with CDDP (5 μM) for 3 days, MG132 added 3 h before harvesting; Western blot.
Assay [3] addresses nucleophosmin 1 (NPM1) (human (endogenous in U2OS)) (UniProt P06748). Briefly: co-IP; anti-NPM1 immunoprecipitation from the N fraction of U2OS and U2OS::HA βTrCP1 cells, untreated or treated with CDDP (5 μM) for 3 days; Western blot.
The target is the same in assay [4]. Briefly: condition: only in cells overexpressing HA βTrCP1 (U2OS::HA βTrCP1, CDDP 5 μM); co-IP; anti-NPM1 immunoprecipitation from the N fraction of U2OS::HA βTrCP1 cells (overexpressing βTrCP1) treated with CDDP (5 μM) for 3 days; Western blot for p21 CIP1.

The chains behind the UniProt entries cited, without tags or fusion partners.
UniProt P38936: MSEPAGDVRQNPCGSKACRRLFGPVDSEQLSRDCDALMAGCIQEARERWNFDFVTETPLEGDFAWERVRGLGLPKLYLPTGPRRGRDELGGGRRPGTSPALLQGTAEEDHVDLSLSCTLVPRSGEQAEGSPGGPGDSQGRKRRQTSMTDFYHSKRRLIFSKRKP
UniProt P06748: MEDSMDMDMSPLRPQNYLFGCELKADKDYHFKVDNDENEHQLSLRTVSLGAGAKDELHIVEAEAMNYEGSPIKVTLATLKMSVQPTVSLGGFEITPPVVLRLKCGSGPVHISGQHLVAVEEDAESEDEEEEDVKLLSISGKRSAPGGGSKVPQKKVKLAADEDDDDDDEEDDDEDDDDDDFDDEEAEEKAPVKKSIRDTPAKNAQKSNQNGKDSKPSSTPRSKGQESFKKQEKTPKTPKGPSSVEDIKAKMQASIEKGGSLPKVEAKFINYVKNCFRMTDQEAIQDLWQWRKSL

No constants are given. Whether binding was seen depends on the method and setting. Binding seen in cells or lysates may run through a third protein. Some results given as binding are weak or reduced against the parent protein; the word gives no strength.

We go through two substances from PMC11937513.

As to “nucleophosmin 1 (NPM1) (from UniProt P06748 1-294)”, the binding result in assay [1] is reported as “binds”; in assay [2], “no binding”.
Take p21 CIP1 (from UniProt P38936 1-164): the results for the binding entry in assay [3] and in assay [4] were “binds” and “no binding”, respectively.
